# Measurements taken from PubChem BioAssay AID720504 (National Center for Advancing Translational Sciences (NCATS), 2013).
# Sequences of proteins named here, by UniProt entry; tags and fusion partners are left off.
# UniProt P53350, whole entry, looked up: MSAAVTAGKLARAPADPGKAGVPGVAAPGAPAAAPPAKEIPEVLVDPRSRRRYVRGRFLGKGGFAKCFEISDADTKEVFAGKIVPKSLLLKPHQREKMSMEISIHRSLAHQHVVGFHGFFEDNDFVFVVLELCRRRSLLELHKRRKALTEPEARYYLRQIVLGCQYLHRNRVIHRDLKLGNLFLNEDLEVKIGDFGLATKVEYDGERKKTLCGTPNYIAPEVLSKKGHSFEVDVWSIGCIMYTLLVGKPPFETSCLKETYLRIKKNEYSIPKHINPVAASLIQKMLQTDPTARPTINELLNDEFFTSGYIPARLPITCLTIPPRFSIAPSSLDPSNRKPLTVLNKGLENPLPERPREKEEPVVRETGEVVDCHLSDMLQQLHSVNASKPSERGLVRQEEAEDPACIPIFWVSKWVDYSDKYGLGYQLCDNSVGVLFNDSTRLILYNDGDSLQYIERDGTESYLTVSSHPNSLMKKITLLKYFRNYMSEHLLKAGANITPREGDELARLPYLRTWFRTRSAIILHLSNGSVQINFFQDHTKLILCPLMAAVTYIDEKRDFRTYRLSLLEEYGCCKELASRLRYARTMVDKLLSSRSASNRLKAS
# About 10,000 (2.8%) of roughly 360,000 compounds were called active. Inconclusive results, whose numbers are uncertain, are shown with a selection of clear calls. The call rests on the fitted dose curve; in most records, active means well fitted inhibition curve with a large enough effect; inconclusive means small, poorly fitted or top-dose-only effect; inactive means flat fitted curve, though single readings scatter. Where the call is inconclusive, the potency comes from a doubtful curve fit.
# Target: Serine/threonine-protein kinase PLK1 (Homo sapiens) (UniProt P53350)
# Experiment: qHTS for Inhibitors of PLK1-PDB (polo-like kinase 1 - polo-box domain): Primary Screen; further: nearly all actives have a fitted effect of over 65% in size; on max response, negative = inhibition: series mostly up to about 57 µM
# Conditions: Plk1 PBD binding of FITC phosphopeptide, fluorescence polarization
# On the % scale 0 is the no-effect control and ±100 the full control effect; potency means the concentration at half of the fitted maximal effect.
SMILES,"max response, negative = inhibition",Potency
O=C(c1ccco1)N1CCN(C(=O)c2cnn(-c3cccc(F)c3)c2C2CCNCC2)CC1,inconclusive: -8.76% [inhibitor],–
COc1cc(/C=C2\SC(=S)N(C(C(=O)O)c3ccccc3)C2=O)cc(OC)c1OC (stereo unspecified),–,"inconclusive: 26.7 µM [inhibitor, partial curve]"
O=C(O)/C=C/C(=O)NCCCc1ccccc1,–,active: 26.7 µM
COc1ccc(/C=C2/SC(=O)N(CCCCCC(=O)Nc3ccccc3C(=O)O)C2=S)cc1,–,"inconclusive: 37.7 µM [inhibitor, single point]"
CCC1Oc2ccc(C)cc2N(CC(=O)N(Cc2ccc(C)o2)C2CCCC2)C1=O (stereo unspecified),–,"inconclusive: 26.7 µM [inhibitor, single point]"
COc1cc(CCN2C(=O)N[C@@H](CCc3ccccc3)C(C(C)=O)=C2C)cc(OC)c1OC,inactive: 4.14%,–
COc1cccc(C(=O)NCC(=O)OCC(=O)C(C)(C)C)c1,inactive: -2.4%,–
CCOc1ccc(Cl)cc1/C=C1/C(=O)ON=C1C,–,"inconclusive: 10.6 µM [inhibitor, partial curve, poor fit]"
CSc1ccc(C2C(C(=O)c3ccco3)=C(O)C(=O)N2c2nnc(SC)s2)cc1 (stereo unspecified),–,"inconclusive: 7.52 µM [inhibitor, partial curve]"
CCn1c(SCc2ccc([N+](=O)[O-])cc2)nnc1C(C)NC(=O)c1ccccc1Br (stereo unspecified),–,"inconclusive: 37.7 µM [inhibitor, single point]"
Cc1cc(C)c(NC(=O)OCCN2CCOCC2)c(C)c1,–,active: 2.67 µM
COc1ccc(/C([O-])=C(/C(=S)Nc2ccc(C)c(C)c2)n2c[n+](C)c3ccccc32)cc1OC,–,"inconclusive: 33.6 µM [inhibitor, partial curve, poor fit]"
O=C1N(c2ccccc2C(F)(F)F)O[C@@]1(c1ccccc1)C1CCCC1,–,"inconclusive: 21.2 µM [inhibitor, partial curve]"
CN(C)c1ccc(C(CC(=O)c2ccccc2)C2CCCCC2=O)cc1 (stereo unspecified),–,"inconclusive: 23.8 µM [inhibitor, single point]"
Cc1ccc(-c2ccc(/C=N/NC(=O)CN3CCCC3)o2)cc1Cl,inactive: -0.984%,–
CSc1ncc(Sc2ccccc2)c(C(=O)O)n1,–,active: 23.8 µM
CN1C(=O)/C(=C2/C=CC=CN2C)OC1=S,–,"inconclusive: 26.7 µM [inhibitor, partial curve]"
CCOc1c(Br)cc(/C=C2\C(=O)N(CCC#N)N=C2C)cc1OC,–,active: 1.06 µM
O=c1[nH]c(=S)[nH]c2c1C(c1ccc(Br)cc1)c1c([nH]c(=S)[nH]c1=O)O2,–,active: 5.97 µM
CN(C(=S)NC(=O)CCCOc1ccc(Cl)cc1Cl)c1ccccc1,–,"inconclusive: 16.8 µM [inhibitor, partial curve]"
CCOC(=O)C(=Cc1cc(=O)c(OC)co1)C(=O)OCC,–,active: 23.8 µM
Cc1ccc(S(=O)(=O)CC(C)N2CCOCC2)c(S(=O)(=O)CC(C)N2CCOCC2)c1 (stereo unspecified),–,"inconclusive: 67 µM [inhibitor, partial curve]"
CC1CN(C(=O)CCC(=O)NCc2ccccc2Cl)c2ccccc2S1 (stereo unspecified),–,"inconclusive: 21.2 µM [inhibitor, partial curve]"
Cc1ccc(C)c(-c2cc(C(=O)Nc3cccc(C(=O)O)c3)c3ccccc3n2)c1,–,"inconclusive: 21.2 µM [inhibitor, single point]"

# Not a retest: 3 of the compounds above.
SMILES,"max response, negative = inhibition",Potency
CCn1c(SCc2ccc([N+](=O)[O-])cc2)nnc1C(C)NC(=O)c1ccccc1Br (stereo unspecified),–,"inconclusive: 37.7 µM [inhibitor, single point]"
Cc1cc(C)c(NC(=O)OCCN2CCOCC2)c(C)c1,–,active: 2.67 µM
COc1ccc(/C([O-])=C(/C(=S)Nc2ccc(C)c(C)c2)n2c[n+](C)c3ccccc32)cc1OC,–,"inconclusive: 33.6 µM [inhibitor, partial curve, poor fit]"

# Next structures follow:

SMILES,"max response, negative = inhibition",Potency
Brc1ccc(-c2csc(N3CCc4ccccc4C3)n2)cc1,–,"inconclusive: 29.9 µM [inhibitor, single point]"
COc1ccc(S(=O)(=O)N2CCC(C(=O)N[C@H](C(=O)N3CCCC3)C(C)C)CC2)cc1,–,active: 26.7 µM
CN1CCN(c2ccc(Cl)cc2NS(=O)(=O)c2ccccc2Cl)CC1,–,active: 26.7 µM
COc1ccc(C(=O)NC(=S)NNC(=O)c2ccccc2C)cc1,–,"inconclusive: 26.7 µM [inhibitor, single point]"
O=C(CSc1nc2ccccc2s1)Nn1cnnc1,–,"inconclusive: 37.7 µM [inhibitor, partial curve]"
O=C(O)CCC(=O)NNC(=O)c1ccc([N+](=O)[O-])cc1,–,active: 23.8 µM
Clc1ccc(Cn2cnc3ccccc32)cc1,inactive: -4.12%,–
COc1ccc2[nH]c3c(c2c1)CCN1C(=O)C(CC(=O)NCc2ccco2)C[C@H](C(=O)N2CCOCC2)[C@@]31C (stereo partly specified),inactive: -7.5%,–
O=C(CSc1ccc(Cl)cc1)N1CCN(c2c(Cl)cccc2[N+](=O)[O-])CC1,–,"inconclusive: 11.9 µM [inhibitor, partial curve]"
CC1(C)Cc2c(c(-c3ccco3)nc3sc4c(NCC5CCCO5)ncnc4c23)CO1 (stereo unspecified),inconclusive: -36.9% [inhibitor],–
Cc1ccc2nc(Cl)c(/C=N/Nc3ccc(C(=O)O)cc3)cc2c1,–,"inconclusive: 29.9 µM [inhibitor, partial curve]"
CN(C)S(=O)(=O)c1cccc(NC(=O)COC(=O)/C=C/c2ccco2)c1,–,active: 29.9 µM
O=C1NC(=O)C(Nc2cccc3ccccc23)S1 (stereo unspecified),–,"inconclusive: 23.8 µM [inhibitor, single point]"
CCc1ccc(-c2nc(CS(=O)CC(=O)NCCCN3CCOCC3)c(C)o2)cc1 (stereo unspecified),inconclusive: -30% [inhibitor],–
CC(C)NC(=O)c1sc(=S)n2c1[nH]c(=O)c1ccc(C(=O)NCCc3ccc(Cl)cc3)cc12,–,active: 26.7 µM
CS(=O)(=O)c1ccc(Cl)c(NC(=O)Nc2ccccc2)c1,–,active: 23.8 µM
Cc1ccc(S(=O)(=O)NN=C2C3CC4CC(C3)CC2C4)cc1[N+](=O)[O-],–,"inconclusive: 26.7 µM [inhibitor, partial curve]"
CC1=CC(=O)C=CC1=Nc1ccc(N(C)C)cc1,–,"inconclusive: 26.7 µM [inhibitor, single point]"
Cc1ccc(-n2nc3c(=O)n(C(C)C(=O)NCc4ccc5c(c4)OCO5)nc(C)c3c2C)cc1 (stereo unspecified),inactive: -18.3%,–
CCOC(=O)c1sc(NC(=O)C(C)C)c(C#N)c1C,–,active: 2.99 µM
O=C(CN1CCN(CC(=O)c2ccc(F)cc2)CC1)Nc1ccccc1Cl,inactive: -21.4%,–
O=C(CCC(=O)N1CCN(S(=O)(=O)c2ccc(Cl)cc2)CC1)Nc1ccc(Cl)cc1Cl,–,"inconclusive: 29.9 µM [inhibitor, single point]"
CCOc1cc(C(c2c(C)[nH][nH]c2=O)c2c(C)[nH][nH]c2=O)ccc1OS(=O)(=O)c1ccc(C)cc1,–,"inconclusive: 9.47 µM [inhibitor, partial curve]"
CN(C)c1ncnc2c1C(c1ccccc1)C(C)(C)O2 (stereo unspecified),inactive: 4.13%,–

SMILES,"max response, negative = inhibition",Potency
Cn1ncc(C(N)=O)c1NC(=S)NC(=O)c1ccc(Br)o1,–,"inconclusive: 23.8 µM [inhibitor, single point]"
COc1ccc(Nc2ncc(C#N)c(N)n2)c(OC)c1,inconclusive: -30.3% [inhibitor],–
COc1cc(OC)cc(C(=O)N2CCN(Cc3ccccc3[N+](=O)[O-])CC2)c1,–,"inconclusive: 26.7 µM [inhibitor, single point]"
Cc1nc(SCCO)c([N+](=O)[O-])[nH]1,inactive: -26.4%,–
O=C(CCn1c(=S)[nH]c2ccccc2c1=O)Nc1ccc(F)cc1,inactive: -0.811%,–
COc1ccccc1-c1cc(N)n[nH]1,–,"inconclusive: 26.7 µM [inhibitor, single point]"
Clc1ccc(OCCCCSc2ncccn2)cc1,–,active: 29.9 µM
COCC(=O)c1[nH]c2ccccc2c1C,–,"inconclusive: 23.8 µM [inhibitor, single point]"
COc1ccc(/C=C2\SC(=S)N(N3C(=O)CCC3=O)C2=O)cc1O,inactive: -14.1%,–
COc1cc(=O)n2c(-c3ccccc3)csc2n1,–,"inconclusive: 21.2 µM [inhibitor, single point]"
Clc1ccc(CN2CCc3c([nH]c4ccccc34)C2)cc1Cl,–,"inconclusive: 7.52 µM [inhibitor, partial curve]"
CCCCc1cc(=O)oc2cc(OC(C)C(=O)NCCN3CCOCC3)c(Cl)cc12 (stereo unspecified),inactive: -9.25%,–
COc1ccc(NC(=S)Nc2ccc(N)c([N+](=O)[O-])c2)cc1,–,"inconclusive: 29.9 µM [inhibitor, partial curve]"
Cc1ccc(-c2cc(C(=O)N3CCN(c4ncccn4)CC3)c3cc(Br)ccc3n2)o1,–,active: 6.7 µM
Cc1cc(=O)oc(C)c1C(=O)Nc1ccc(N(C)C)cc1,inactive: 2.72%,–
CCOC(=O)c1c(/N=C/N(C)C)sc(/C=N/Nc2ccccc2)c1-c1ccccc1,–,active: 23.8 µM
CC(=O)c1cccc(NC(=O)NC2CCCCCCC2)c1,inactive: 2.67%,–
Cc1ccc(NC(=O)NC(=O)N(C2CCCCC2)S(=O)(=O)c2ccccc2)cc1,–,active: 29.9 µM
Cc1ccccc1CN1CCNC(=O)C1CC(=O)NCCN1CCCCC1=O (stereo unspecified),inactive: -4.71%,–
Cc1cc([N+](=O)[O-])cc2c1NC(c1ccccn1)C1CC=CC21 (stereo unspecified),–,"inconclusive: 21.2 µM [inhibitor, single point]"
CCOc1ccc(-c2cn(-c3ccccc3OC)c(=S)[nH]2)cc1,–,"inconclusive: 26.7 µM [inhibitor, partial curve]"
Cc1cc(C(=O)CSc2ccc(F)cc2)cc(C)c1OC(=S)N(C)C,–,"inconclusive: 23.8 µM [inhibitor, partial curve]"
Cc1ccc(Sc2ccc(S(=O)(=O)Nc3ccc(C(=O)O)cc3)cc2)cc1C,–,"inconclusive: 26.7 µM [inhibitor, single point]"
